{"source": "patent US20220136068A1", "about": "“METHODS OF DETECTING AND TREATING VENETOCLAX-RESISTANT ACUTE MYELOID LEUKEMIA” (The Regents of the University of Colorado, A Body Corporate, priority 2019, published 2022)", "key": {"[1]": {"system": "mono-AML ROS-low LSCs", "experiment": "In vitro viability / cell death of sorted ROS-low LSCs from monocytic AML", "format": "cell-based, human", "settings": "24 hours in vitro treatment; FIG. 2, FIG. 3", "method": "(§1) FIG. 2 is a series of charts showing viability of sorted ROSlow LSCs from mono-AML (n=5) and prim-AML (n=7) after 24 hours in vitro treatment with venetoclax alone or in combination with a fixed dose of 1.5 μM azacitidine. Each data point was expressed as mean±SD of technical triplicates. All viability data were normalized to untreated control.\nFIG. 3 is a series of bar graphs viability of three mono-AMLs from the Research Cohort 2 after 24 hours in vitro treatment with various single or combinations drugs.\nTo understand if the lack of response by monocytic AML to VEN+AZA is driven by intrinsic mechanisms, VEN+AZA sensitivity was directly evaluated in vitro, where protection from extrinsic factors such as the microenvironment is minimal. For these experiments, a second cohort of AML specimens with sufficient material to allow for more robust in vitro experimentation was used (herein referred to as Research Cohort 2). Using the surface expression profile of CD117, CD11b, CD68 and CD64, the primitive or monocytic compartment was isolated for analysis (herein referred to as prim-AML or mono-AML, respectively). Prim-AML has the phenotype of CD117+/CD11b−/CD68−/CD64− and mono-AML is predominantly CD117−/CD11b+/CD68+/CD64+. […]\n(§2) The relative sensitivity of LSCs derived from primitive versus monocytic AML specimens was analyzed. […]"}, "[2]": {"system": "prim-AML ROS-low LSCs", "experiment": "In vitro viability of sorted ROS-low LSCs from primitive AML", "format": "cell-based, human", "settings": "in vitro treatment", "method": "as §1\nTo understand if the lack of response by monocytic AML to VEN+AZA is driven by intrinsic mechanisms, VEN+AZA sensitivity was directly evaluated in vitro, where protection from extrinsic factors such as the microenvironment is minimal. For these experiments, a second cohort of AML specimens with sufficient material to allow for more robust in vitro experimentation was used (herein referred to as Research Cohort 2). Using the surface expression profile of CD117, CD11b, CD68 and CD64, the primitive or monocytic compartment was isolated for analysis (herein referred to as prim-AML or mono-AML, respectively). Prim-AML has the phenotype of CD117+/CD11b−/CD68−/CD64− and mono-AML is predominantly CD117−/CD11b+/CD68+/CD64+. The in vitro drug sensitivity of these populations is shown in FIG. 2 and closely correlates with relative responses observed for the Clinical Cohort.\nas §2"}, "[3]": {"system": "ROS-low LSCs from Patient-72, Patient-12 and Patient-65 (mono-AMLs)", "experiment": "In vitro viability of ROS-low LSCs from VEN+AZA refractory/relapsed Trial Cohort 1 patients", "format": "cell-based, human", "settings": "Patient-72, Patient-12, Patient-65; 24 hours in vitro; FIG. 4"}, "[4]": {"system": "acute myeloid leukemia (AML)", "settings": "older previously untreated AML patients; in combination with backbone chemotherapy treatments; cited from earlier work"}}, "note": "At least one compound was matched to its structure with a doubt left.", "data": [{"smiles": "CC1(C)CCC(CN2CCN(c3ccc(C(=O)NS(=O)(=O)c4ccc(NCC5CCOCC5)c([N+](=O)[O-])c4)c(Oc4cnc5[nH]ccc5c4)c3)CC2)=C(c2ccc(Cl)cc2)C1", "note": "[VEN, venetoclax]", "values": [{"measurement": "sensitivity/resistance (viability) of mono-AML ROS-low LSCs", "setting": "[1]", "value": "resistant"}, {"measurement": "sensitivity/resistance (viability) of prim-AML ROS-low LSCs", "setting": "[2]", "value": "sensitive"}, {"measurement": "sensitivity/resistance (viability) of ROS-low LSCs from refractory/relapsed patients", "setting": "[3]", "value": "resistant"}, {"measurement": "responses (share of patients)", "setting": "[4]", "value": "over 70%"}]}]}
